Data as given in publication PMC11183501.
No constants are given. Whether binding was seen depends on the method and setting. Binding seen in cells or lysates may run through a third protein. Some binding calls cover weakened binding; strength is not graded here.

Molecular target: T1, RRM2 (human (endogenous in HCT116)), P31350
T1 chain: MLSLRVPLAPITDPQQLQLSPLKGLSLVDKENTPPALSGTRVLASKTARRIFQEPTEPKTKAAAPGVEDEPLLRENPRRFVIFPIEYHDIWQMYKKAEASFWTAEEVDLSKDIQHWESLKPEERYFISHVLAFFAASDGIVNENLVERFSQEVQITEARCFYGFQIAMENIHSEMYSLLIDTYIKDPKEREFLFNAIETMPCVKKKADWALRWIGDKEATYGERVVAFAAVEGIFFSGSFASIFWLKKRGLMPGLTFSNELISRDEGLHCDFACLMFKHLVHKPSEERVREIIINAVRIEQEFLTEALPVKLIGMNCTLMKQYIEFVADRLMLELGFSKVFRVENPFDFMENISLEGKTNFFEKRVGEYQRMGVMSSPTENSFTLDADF
Assay: co-IP; total cellular extracts of HCT116 p53+/+ and HCT116 p53-/- cells; anti-RRM2 (anti-IgG as control) on Protein A magnetic beads, overnight at 4°C, washed three times with lysis buffer; immunoblot with anti-SIRT7
Conditions: remark: other sources report otherwise

binding: binds
B1: SIRT7, Q9NRC8 1-400 (enzyme)
chain: MAAGGLSRSERKAAERVRRLREEQQRERLRQVSRILRKAAAERSAEEGRLLAESADLVTELQGRSRRREGLKRRQEEVCDDPEELRGKVRELASAVRNAKYLVVYTGAGISTAASIPDYRGPNGVWTLLQKGRSVSAADLSEAEPTLTHMSITRLHEQKLVQHVVSQNCDGLHLRSGLPRTAISELHGNMYIEVCTSCVPNREYVRVFDVTERTALHRHQTGRTCHKCGTQLRDTIVHFGERGTLGQPLNWEAATEAASRADTILCLGSSLKVLKKYPRLWCMTKPPSRRPKLYIVNLQWTPKDDWAALKLHGKCDDVMRLLMAELGLEIPAYSRWQDPIFSLATPLRAGEEGSHSRKSLCRSREEAPPGDRGAPLSSAPILGGWFGRGCTKRTKRKKVT
